According to the supplement of paper PMC6078165:
The reference is the same well before dosing, and untreated signal decays as well.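 Labels refer to human fibroblasts, largely primary: uterine (C12385, HUF), lung (H6013), bone (Hs27A), adrenal (HADF), skin (WS1), plus mammary HMF and breast cancer-associated Hs343T. Cancer lines are basal-like or mesenchymal-like triple-negative breast cancer. The paper counts as hits responses shifting over 3x the replicate standard deviation. The tissue of the other fibroblasts is not given here.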

Test system: HCC1143
Assay: relative JC-1 red fluorescence (viability) vs pre-drug, coculture with fibroblast (fraction); higher = more viable cancer cells
Details: 0.1 µM
Protocol: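 JC-1 labelled TNBC cells cocultured 1:1 (1,500 cells each) with CellTrace Violet stained primary or stromal fibroblasts in 384-well plates in FluoroBrite medium, treated with one of 42 anticancer drugs at 0.1, 1, 10 or 100 uM. JC-1 red fluorescence (mitochondrial integrity in cancer cells only) was read by plate reader every 8 h for 72 h. Values are normalised to each well's pre-drug value. The stock of one drug was tenfold lower, so its dose labels may be too high.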

C[C@]12CC[C@@H]3c4ccc(O)cc4C[C@@H](CCCCCCCCC[S+]([O-])CCCC(F)(F)C(F)(F)F)[C@H]3[C@@H]1CC[C@@H]2O (some centres not stated) [Fulvestrant]
relative JC-1 red fluorescence
Details | 40 h | 48 h | 56 h | 64 h | 72 h
coculture fibroblast: C12385 | – | 0.49 | 0.4358 | 0.3886 | 0.3685
coculture fibroblast: H6013 | – | 0.606 | 0.567 | 0.536 | 0.514
coculture fibroblast: H6019 | – | 0.534 | 0.476 | 0.437 | 0.402
coculture fibroblast: H6076 | – | 0.6149 | 0.5824 | 0.559 | 0.576
coculture fibroblast: H6231 | – | 0.605 | 0.5674 | 0.5238 | 0.499
coculture fibroblast: HADF | – | 0.5177 | 0.4802 | 0.447 | 0.439
coculture fibroblast: HCFa | – | 0.51 | 0.47 | 0.43 | 0.403
coculture fibroblast: HCPF | – | 0.552 | 0.508 | 0.475 | 0.464
coculture fibroblast: HHSteC | 0.622 | 0.586 | 0.548 | 0.518 | 0.478
coculture fibroblast: HMF | 0.665 | 0.644 | 0.608 | 0.585 | 0.568
coculture fibroblast: HPFa | 0.618 | 0.581 | 0.507 | 0.449 | 0.404
coculture fibroblast: HUF | 0.593 | 0.5585 | 0.5073 | 0.471 | 0.438
coculture fibroblast: Hs5 | 0.6535 | 0.6298 | 0.606 | 0.581 | 0.587
coculture fibroblast: Hs27A | 0.477 | 0.453 | 0.403 | 0.362 | 0.339
coculture fibroblast: Hs343T | 0.653 | 0.613 | 0.561 | 0.533 | 0.512
coculture fibroblast: WS1 | 0.536 | 0.50413 | 0.4603 | 0.429 | 0.408
